From patent publication US20260297165A1, “COMPOSITIONS AND METHODS FOR EXPRESSING THERAPEUTICS” (priority 2023, published 2026)

Tested on: Human EXPI293 suspension cells
Test: SDS-PAGE and Western blot of membrane-bound CD59 (mCD59) in lysate of transfected cells
Type: cell-based
Settings: cell lysate, day 2

Molecule	mCD59 expression
Vector GTP: Snapgene-optimized mCD59, SEQ ID NO: 43 (protein, UniProt O55186 24-96, looked up) CD59A glycoprotein: LTCYHCFQPVVSSCNMNSTCSPDQDSCLYAVAGMQVYQRCWKQSDCHGEIIMDQLEETKLKFRCCQFNLCNKS	expressed
Vector GTQ: Jcat-optimized mCD59 (protein, UniProt O55186 24-96, looked up) CD59A glycoprotein: LTCYHCFQPVVSSCNMNSTCSPDQDSCLYAVAGMQVYQRCWKQSDCHGEIIMDQLEETKLKFRCCQFNLCNKS	expressed
Vector GAT: Genscript-optimized mCD59 (protein, UniProt O55186 24-96, looked up) CD59A glycoprotein: LTCYHCFQPVVSSCNMNSTCSPDQDSCLYAVAGMQVYQRCWKQSDCHGEIIMDQLEETKLKFRCCQFNLCNKS	expressed
Vector GTM: wild-type membrane-bound CD59 (mCD59), SEQ ID NO: 43 (protein, UniProt P13987 26-102, looked up) CD59 glycoprotein: LQCYNCPNPTADCKTAVNCSSDFDACLITKAGLQVYNKCWKFEHCNFNDVTTRLRENELTYYCCKKDLCNFNEQLEN	expressed
Vector GTR: Geneart-optimized mCD59 (protein, UniProt P13987 26-102, looked up, codon-optimized expression vector, Geneart-optimized mCD59) CD59 glycoprotein: LQCYNCPNPTADCKTAVNCSSDFDACLITKAGLQVYNKCWKFEHCNFNDVTTRLRENELTYYCCKKDLCNFNEQLEN	expressed
